Conditions: human, po

In the case of `COc1cc2c(cc1OC)C(=O)C(CC1CCN(Cc3ccccc3)CC1)C2` (racemic) [donepezil, (±)-2,3-dihydro-5,6-dimethoxy-2-[[1-(phenylmethyl)-4-piperidinyl]methyl]-1H-inden-1-one], the “required skin permeation rate” value is reported as “approximately 4.134 μg/cm^2/hr”.

Source: US10888533B2 (ICURE PHARMACEUTICAL INC., priority 2014, dated 2021)
